Assay results from publication PMC7819943, “Rice protein-binding microarrays: a tool to detect cis-acting elements near promoter regions in rice”.
The other results are listed elsewhere or left out.

Biological target: T1, OsSMF1 (Oryza sativa, UniProt Q6ZLB0 1-436)
T1 sequence: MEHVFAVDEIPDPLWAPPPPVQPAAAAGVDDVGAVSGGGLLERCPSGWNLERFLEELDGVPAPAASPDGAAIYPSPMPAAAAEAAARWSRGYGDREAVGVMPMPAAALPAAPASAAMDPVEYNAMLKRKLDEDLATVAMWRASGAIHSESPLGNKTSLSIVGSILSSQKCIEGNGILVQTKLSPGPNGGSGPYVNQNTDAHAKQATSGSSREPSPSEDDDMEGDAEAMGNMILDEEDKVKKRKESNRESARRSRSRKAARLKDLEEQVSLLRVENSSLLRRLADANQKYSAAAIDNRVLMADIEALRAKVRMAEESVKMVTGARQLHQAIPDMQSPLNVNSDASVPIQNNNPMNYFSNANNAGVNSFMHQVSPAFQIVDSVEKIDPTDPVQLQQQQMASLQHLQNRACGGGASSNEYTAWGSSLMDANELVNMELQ
Experiment: protein-binding microarray (RPBM); PBS, 2% BSA, 51.3 ng/ul salmon testes DNA, 50 uM zinc acetate, 200 nM TF, 25 C, 1 h; high values mean tight binding
Conditions: protein: recombinant; tags: N-terminal polyhistidine and DsRed monomer fusion (pET32a); chain copies: 2; label: CyDye5-dUTP incorporated in the synthesized complementary strand; 3' TTTTT single-stranded linker to array surface; dsDNA, one strand shown
Method in brief: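 Transcription factors were made in E. coli BL21-CodonPlus as N-terminal fusions to a polyhistidine tag and DsRed, then purified on Ni–NTA. After primer extension with Cy5-dUTP and blocking with 2% BSA, a custom Agilent array was exposed for 1 h at 25 °C to 200 nM protein in PBS, 2% BSA, salmon testes DNA and 50 µM zinc acetate. Washed arrays were scanned on an Axon 4000B, and the binding signal is per-feature fluorescence intensity in arbitrary units.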

In order of rising binding signal:
1. ATTTATTTTCCCCTAACCTGCGCGGAGAAAATTGTCGTGTCGGAGTCACCTAGTGCAG  3160 fluorescence intensity (a.u.)
2. TCGGCGGCAGAACAGGGACGAAATGCAGCCACCGCACCAGCGGAGTCACCTAGTGCAG  3180 fluorescence intensity (a.u.)
3. GCGAATTCCGGCGAGGTATTCGCCGCGTTGCCATGGGGAACGGAGTCACCTAGTGCAG  3190 fluorescence intensity (a.u.)
4. GTCGGGCTCGGGACTCCTGCCGTGCCGCTGTCTGACAAGTCGGAGTCACCTAGTGCAG  3200 fluorescence intensity (a.u.)
5. TCCCGTCTCGTCCGTCGTCTCCTCCGCTCCTTGCGCCAAGCGGAGTCACCTAGTGCAG  3200 fluorescence intensity (a.u.)
6. AGGAGCATTTTGTAAATTAATGCGTGTACCATCATTGTAGCGGAGTCACCTAGTGCAG  3220 fluorescence intensity (a.u.)
7. TGCCGCTGTGGGCGGCCAGCATCACCGCCATCGCCGCCGGCGGAGTCACCTAGTGCAG  3230 fluorescence intensity (a.u.)
8. CCACCACAAGCGAGGCCCAACTCAGAGTGACACGAGTTCGCGGAGTCACCTAGTGCAG  3290 fluorescence intensity (a.u.)
9. GGCCGCGACGTACAGCTGTGACGCGGGATACGCCAAGAAGCGGAGTCACCTAGTGCAG  3320 fluorescence intensity (a.u.)
10. ATTTTAGGCTAAACAACTGAATGACTGACGATTCGATCCACGGAGTCACCTAGTGCAG  3340 fluorescence intensity (a.u.)
11. TGCAGCACGGGGTAGTTGGGTTGGGTCCGGACGCGGCGCGCGGAGTCACCTAGTGCAG  3390 fluorescence intensity (a.u.)
12. ATTGGTTGACGCGACGCCAATGGAGTCACGAACTGAACTGCGGAGTCACCTAGTGCAG  3400 fluorescence intensity (a.u.)
13. AAAATCTCCATCCCAGCCACCTCACAACAAGATCCTCAACCGGAGTCACCTAGTGCAG  3410 fluorescence intensity (a.u.)
14. CGGCTCGACCCGATGCTGTGGATTTCCGTTGCTACTATACCGGAGTCACCTAGTGCAG  3460 fluorescence intensity (a.u.)
15. TTTGCTTGCGAGTTGCGACAGTGACGGAGAGAGAGAGAGACGGAGTCACCTAGTGCAG  3460 fluorescence intensity (a.u.)
16. AGCGTGCCTTCCCCACGTAGCACCCAAACGCCACGCCGACCGGAGTCACCTAGTGCAG  3460 fluorescence intensity (a.u.)
17. GCAGGCTGCTATAAGTAGCGCTGCTGCTGACGAGCTGATCCGGAGTCACCTAGTGCAG  3470 fluorescence intensity (a.u.)
18. AGCGCCGCTCCCCGCCACAAGTCCGCGCCTCCTCGACGACCGGAGTCACCTAGTGCAG  3500 fluorescence intensity (a.u.)
19. TATGTAACCCAGAAGCGCCACTGACTGTACTTTTCCCTTACGGAGTCACCTAGTGCAG  3540 fluorescence intensity (a.u.)
20. ACTCAGTTTCGTGCATGGATCTTACGAAGGTCAGGGGAGGCGGAGTCACCTAGTGCAG  3730 fluorescence intensity (a.u.)
21. CGGGAGGAGGGAGGTTGTTTCGTCTGGGGTTTGATTGGGACGGAGTCACCTAGTGCAG  3780 fluorescence intensity (a.u.)
22. CTGGACATGCCACAACAAACTTGCCAGCTCAAACAGTGACCGGAGTCACCTAGTGCAG  3790 fluorescence intensity (a.u.)
23. CTCGAGGGGCTCGGGCGTGTCGCGCGTGGCGAAGAGGCGCCGGAGTCACCTAGTGCAG  3800 fluorescence intensity (a.u.)
24. AGCCGGTGGTCTCAACCACCTCATTTAGCCCGCTTTGCTGCGGAGTCACCTAGTGCAG  3860 fluorescence intensity (a.u.)
25. CTAGCTGTATGCCGCCTTTATAACGCGGCGAGGCAGCCAGCGGAGTCACCTAGTGCAG  3900 fluorescence intensity (a.u.)
26. TGTTCTTCGACAATCCAGTCATCTTACATAGAAACGGATACGGAGTCACCTAGTGCAG  3930 fluorescence intensity (a.u.)
27. GCCGAACTATGTATGGTTGGGCCGGGGATGGGCCGACGCCCGGAGTCACCTAGTGCAG  3990 fluorescence intensity (a.u.)
28. GCGTCGAATGGAAAGATTTGAATATACACGCTGGCAACGTCGGAGTCACCTAGTGCAG  4160 fluorescence intensity (a.u.)
29. TCAGTAGTGTTGTGATCGCATCATCAATTCATTATTCATCCGGAGTCACCTAGTGCAG  4200 fluorescence intensity (a.u.)
30. AACGCAACGACAATGCGCTATATTCTGCGCTGACAGGTGGCGGAGTCACCTAGTGCAG  4260 fluorescence intensity (a.u.)
31. GGTGTGGTGATGCTACCCCAAAGTTGAAACCTCGTCAACTCGGAGTCACCTAGTGCAG  4300 fluorescence intensity (a.u.)
32. TTGACCGCTTGACGCGGAGCTCCCCGCCGGCCTCCTCCCCCGGAGTCACCTAGTGCAG  4540 fluorescence intensity (a.u.)
33. GCGAATCCACACGACAACGTGGAGCATTGTGAACGGCCTTCGGAGTCACCTAGTGCAG  4760 fluorescence intensity (a.u.)
34. AACCGCCGATCTCCACCGTCCACGTACCCCGGCCGACCAACGGAGTCACCTAGTGCAG  5430 fluorescence intensity (a.u.)
35. CGTTATTCCTCCACCAGGTGTATCTGACTTGGCAAACCTTCGGAGTCACCTAGTGCAG  5500 fluorescence intensity (a.u.)
36. CTTGCCCCGCGCCACGCCACGGCACGCCACGCCACCGCCCCGGAGTCACCTAGTGCAG  6220 fluorescence intensity (a.u.)
37. CACCGGCGTGTACAGCTCCGACACGCTGACGCTGACCGGGCGGAGTCACCTAGTGCAG  6230 fluorescence intensity (a.u.)
38. ACCCACACCTCGTCCCCGTCACCTCCTATATCATCGTCATCGGAGTCACCTAGTGCAG  6470 fluorescence intensity (a.u.)
39. ACTCTCTCCCCGTCGTCGTCATCGTCATCGTCGTTCGTCGCGGAGTCACCTAGTGCAG  6810 fluorescence intensity (a.u.)
40. AGTAATGGCTAGATGACGTCACCTAGCCGTTGTAGATATCCGGAGTCACCTAGTGCAG  7830 fluorescence intensity (a.u.)
41. TAGTCAAAGGAGCCACGTAGACGCCATATCAGCTAAAACGCGGAGTCACCTAGTGCAG  8470 fluorescence intensity (a.u.)
42. CTAATTCTAAAACTCAACATGCAAACATGCCACCTCATCACGGAGTCACCTAGTGCAG  8980 fluorescence intensity (a.u.)
43. CGAGACCACAAAACCTGTGGTTACATGTCACACGTCATAACGGAGTCACCTAGTGCAG  10900 fluorescence intensity (a.u.)
44. CAAATCGTCGGCCGAATCTCCCGCTGGCGCCGACGTGGACCGGAGTCACCTAGTGCAG  12600 fluorescence intensity (a.u.)
45. AATAGCTGTAGAACCTTTTGAGCTTTTCTTTTATTTATCTCGGAGTCACCTAGTGCAG  12800 fluorescence intensity (a.u.)
46. GTTTTGTCCGAAGCAGCGGCTGAGTCAGCGTGGGACCCACCGGAGTCACCTAGTGCAG  13600 fluorescence intensity (a.u.)
47. ATGAACTATCAGGTCGATCGAATTATCCTCTAAACTCGAACGGAGTCACCTAGTGCAG  14100 fluorescence intensity (a.u.)
48. TCTCTCTCTCTCTCTCTCTCTCTCTTTGAAATTCATGATTCGGAGTCACCTAGTGCAG  18100 fluorescence intensity (a.u.)
49. AATTCTACTGCCACATAAGCGCCACGTCAAAACGCCACGTCGGAGTCACCTAGTGCAG  18100 fluorescence intensity (a.u.)
50. ACTTGGTGCACTATTATGTAGCTCAGTTTACTACTCCAGTCGGAGTCACCTAGTGCAG  20100 fluorescence intensity (a.u.)
51. GTATCCTGGAAACATTATTCTTGTAATTTAGCACTTAGGGCGGAGTCACCTAGTGCAG  32400 fluorescence intensity (a.u.)
52. AGGGCAAGCCGTTGACGCCAGGTGGTAGGGTTGGAGGAGGCGGAGTCACCTAGTGCAG  37800 fluorescence intensity (a.u.)
53. TAGAGAAAGCAAAGCACATACATAGGCTAATTCTCCTTTACGGAGTCACCTAGTGCAG  39200 fluorescence intensity (a.u.)
54. ATATAAATAGGTTTCGAGGTAGAATATCAAAACAAGGATGCGGAGTCACCTAGTGCAG  39300 fluorescence intensity (a.u.)
